Source: patent publication US10787651B2, “Bradyrhizobium monooxygenase and use thereof for preparation of chiral sulfoxide” (JIANGSU AOSAIKANG PHARMACEUTICAL CO., LTD., priority 2018, dated 2020)

Legend:
purified BoTEMO enzyme = assay: Specific activity and ee of purified BoTEMO enzyme against a series of thioethers; type: biochemical, Bradyrhizobium oligotrophicum ECU1212; conditions: ee of sulfoxide product with configuration
Description: To 0.5 ml of potassium phosphate buffer (100 mmol/L, pH 9.0) was added purified BoTEMO enzyme (purified BoTEMO enzyme prepared in accordance with the method of Example 5). A thioether substrate dissolved in DMSO was added so that the final concentration of the thioether was 0.2-2 mmol/L and the final concentration of DMSO was 2% (v/v), and NADPH was added to a final concentration 0.2-2 mmol/L. At 25° C., the reaction was stirred at 1000 rpm under shaking. After completion of reaction, 0.6 ml of ethyl acetate was added for extraction. The extract was dried over anhydrous sodium sulfate. The organic clear liquid was taken up, and evaporated overnight to remove the solvent. Then, the residue was dissolved with 0.5 ml of isopropanol and analyzed for measuring the ee value of product.
The particular analysis conditions of conversion rate and ee value of product are as follows:
(§1) The analysis is carried out with a high performance liquid chromatograph (HPLC) under the conditions of: a chiral OD-H column ([…], 5 μm particle size, Daicel), a mobile phase of n-hexane:isopropanol=93:7, a flow rate of 1 ml/min, and UV detection at 254 nm; or an AS-H column (250 mm×4.6 mm, 5 μm particle size, Daicel), a mobile phase of n-hexane:isopropanol=55:45, a flow rate of 0.5 mL/min, and UV detection at 254 nm.
The activity of BoTEMO for catalyzing the asymmetrical oxidation of a series of thioether substrates to produce optically active sulfoxides was further determined by the method in accordance with Example.

Recombinant BoTEMO = assay: Asymmetric oxidation of thioethers by recombinant BoTEMO crude enzyme with glucose dehydrogenase recycling; type: biochemical, Bradyrhizobium oligotrophicum ECU1212
Description: as §1
To 0.5 ml potassium phosphate buffer (100 mmol/L, pH 9.0) was added 100 μL of crude enzyme solution of BoTEMO (the crude enzyme solution in accordance with the method of Example 5) and a crude enzyme solution of glucose dehydrogenase, and thioanisole, methanol, NADP^+ and glucose were added to the final concentration of 2 mmol/L, 10% (v/v), 0.2 mmol/L and 3.6 g/L, respectively. At 25° C. and 1000 rpm, the mixture was shaken for 1 h. After completion of reaction, 0.6 ml of ethyl acetate was added for extraction. The extract was dried over anhydrous sodium sulfate, and evaporated to remove the solvent. Then, the residue was dissolved in 0.5 ml of isopropanol. The mixture was analyzed in accordance with the method of Example 7 for measure the conversion of reaction and the ee value of product. The conversion of reaction was above 99%, and the ee value of product was above 99% (S).
To 0.5 ml of potassium phosphate buffer (100 mmol/L, pH 9.0) was added 100 μL crude enzyme solution of BoTEMO (the crude enzyme solution prepared in accordance with the method of Example 5) and a crude enzyme solution of glucose dehydrogenase, and omeprazole thioether, methanol, NADP^+ and glucose were added to the final concentrations of 0.2 mmol/L, 10% (v/v), 0.2 mmol/L and 3.6 g/L, respectively. At 25° C. and 1000 rpm, the mixture was shaken for 1 h. After completion of reaction, 0.6 ml of ethyl acetate was added for extraction. […] Then, the residue was dissolved in 0.5 ml isopropanol, and the solution was analyzed in accordance with the method of Example 7 for measuring the conversion of reaction and the ee value of product. […]
To 10 ml of potassium phosphate buffer (100 mmol/L, pH 9.0) was added 0.1 g of lyophilized crude enzyme powders of BoTEMO (crude enzyme powders prepared in accordance with the method of Example 5) and 0.02 g of lyophilized crude enzyme powder of glucose dehydrogenase (15 U/mg), and 1-3 g/L of omeprazole thioether/lansoprazole thioether/pantoprazole thioether/rabeprazle thioether/ilaprazole thioether, 10% (v/v) of methanol, 0.2 mmol/L of NADP^+ and 10 g/L of glucose were added. […] Then, the residue was dissolved in 0.5 ml of isopropanol, and the solution was analyzed in accordance with the method of Example 7 for measuring the conversion of reaction and the ee value of product. […]

COc1ccc2[nH]c(SC)nc2c1 [compound 5]
ee (%) (purified BoTEMO enzyme): 99 (R) %

COc1ccnc(CSc2nc3cc(OC(F)F)ccc3[nH]2)c1OC [compound 7]
ee (%) (purified BoTEMO enzyme): 99 (S) %

Cc1c(OCC(F)(F)F)ccnc1CSc1nc2ccccc2[nH]1 [lansoprazole thioether]
ee value of product (Recombinant BoTEMO; (R), 2 g/L substrate, 24 h): above 99%

CSc1ccccc1 [compound 1]
ee (%) (purified BoTEMO enzyme): 99 (S) %

CSc1ccc(C)cc1 [compound 4]
ee (%) (purified BoTEMO enzyme): 52 (R) %

COc1ccc2[nH]c(SCc3ncc(C)c(OC)c3C)nc2c1 [compound 2]
ee (%) (purified BoTEMO enzyme): 99 (R) %

COc1ccc2[nH]c(SCc3ncc(C)c(OC)c3C)nc2c1 [omeprazole thioether]
ee value of product (Recombinant BoTEMO; (R), 1 g/L substrate, 3 h): above 99%
ee value of product (Recombinant BoTEMO; (R), crude enzyme solution, 0.2 mmol/L substrate, 1 h): above 99%

CSc1ccccc1 [thioanisole]
ee value of product (Recombinant BoTEMO; (S), crude enzyme solution, 2 mmol/L substrate, 1 h): above 99%

COc1ccnc(CSc2nc3cc(-n4cccc4)ccc3[nH]2)c1C [compound 3]
ee (%) (purified BoTEMO enzyme): 99 (R) %

Cc1c(OCC(F)(F)F)ccnc1CSc1nc2ccccc2[nH]1 [compound 8]
ee (%) (purified BoTEMO enzyme): 99 (R) %

COCCCOc1ccnc(CSc2nc3ccccc3[nH]2)c1C [compound 6]
ee (%) (purified BoTEMO enzyme): 99 (R) %
